Source: paper PMC11252441

Protein sequences, listed by entry. Tags and fused reporters are not part of them. Residues count along the entry.
UniProt P20491, residues 19-86: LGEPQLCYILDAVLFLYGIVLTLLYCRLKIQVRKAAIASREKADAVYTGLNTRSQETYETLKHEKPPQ

B1: ZW10 (protein, UniProt O54692 1-779)
chain: MASFVTEVLAHSGSLEKEDLGTRISRLTRRVEEIKGEVCNMISKKYSEFLPTMQSAQALVTQVDTLSNDIDQLKSRIETEVCRDLHISTVEFTNLKQQLERDSVVLTLLKQLQEFSSAIEEYNSALAEKKYIPAARHLEEAQECLKLLKSRKCFDLKMLKSLSMELTVQKQNILYHLGEDWQKLVVWKFPPAKDTSSLESCLQTELHLCTEQPEKEDMTPLPSISSVLLAFSILGELPTKLKSFGQMLLKYILKPLVTCPSLHAVIERQPSSVSICFESLTTDLEHPSPPEAFAKIRLVLEVLQKQLLDLPLDADLEIGKVPGIVLAEMLGEGIWEDLSECLIRNCLVYSIPTNSSKLQEYEEIIQSTEEFEKFLKEMRFLKGDTTDLLKYARNINSHFANKKCQDVIVAARNLMTSEIHNTVKIGPDCKEALPDLPSPDADHKLQVQTVCKAQFTDAGNLEPETSLDPQSFSLPTCRISEAVKKLMELAYQTLLEATTSSDQCAVQLFYSVRNIFHLFHDVVPTYHKENLRKLPQLAAIHHNNCMYIAHHLLTLGHQFRLRLAPILCDGTTTFVDLVPGFRRLGTECFLAQMQAQKGELLERLSSARSFANMDDEENYSAASKAVRQVLHQLRRLGIVWQDVLPVNIYCKAMGTLLNTAIAEMMSRITALEDISTEDGDRLYSLCKTVMDEGPQVFAPLSDENKNKKYQEEVPVYVSKWMPFKELMIMLQASLQEIGDRWADGKGPLATAFPSSEVKALIRALFQNTERRAAALAKIK
B2: XPOT (protein, UniProt Q9CRT8 1-963)
chain: MDEQALLGLNPNADSDFRQRALAYFEQLKISPDAWQVCAEALAQKTYSDDHVKFFCFQVLEHQVKYKYSELSTAQQQLIRETLLSWLQAQMQNPQPEKTFIRNKAAQVFALLFVTEYLTKWPKFFFDILSVVDLNPRGVDLYLRILMAIDSELVDRDVVHTSEASGLENTLIKDTMREQCIPNLVESWYQILHNYQYTNSEVLCQCLEVVGAYVSWIDLSLIANDRFINMLLGHMSVEVLREEACDCLFEIVNKGMDPVDKMKLVESLCQVLQTAGFFSIDQEEDLDFVARFSKLVNGMGQSLIVSWTKLIKNGAVKNAQEALEAIETKVPLMLQLLVHEDDDISSNIIGFCYDYLHILKQLPVLSDQQKANVEAIMLAVMKKLTYDEEYNFENEGEDEAMFVEYRKQLKLLLDRLAQVSPELVLASVRRVFSATLQNWQTTRFMEVEVAVRLLYMLAEALPVSHGAHFSGDVSKASALQDMMRTLVTSGVSSYQHTSVTLEFFETVVRYEKFFTVEPQHIPCVLMAFLDHRGLWHSSAKVRSRTAYLFSRFVKSLNKQMNPYIEEILNRIQDLLALSPPENGYQSLLSSDDQLFIYETAGALIVNSEYPAENKQALMKDLLTPLMERFKVLLEKLMMAQDEERQASLADSLNHAVGFASRTSKAFSNKQTVKQCGCSQVYLDCLQTFLPALSCPLQKDVLRSGVRTFLHRMIICLEEEVLPFIPSASEHMLKDCEAKDLQEFIPLINQITAKFKMQVSPFLQQMFMPLLHAIFEVLLRPAEDNDQSAALEKQMLRRSYFAFLQTVTGSGMSEVIANQGAENVEQVLVTIIQGAVDYPDPIAQKTCFIILSKLVELWGGKDGPVGFADFVYKHIVPACFLAPLKQTFDLADAQTVLALSECAVTLKTIHLKRGPECVQYLQQEYLPSLQVAPEIIQEFCQALQQPDAKVFKNYLKVFFQRAKP
B3: HACD3 (protein, UniProt Q8K2C9 1-362)
chain: METQVLTPHVYWAQRHRELYLRVELSDVQNPAISITDNVLHFKAQGHGAKGDNVYEFHLEFLDLVKPEPAYRLTQRQVNITVQKKGSHWWERLTKQEKRPLFLAPDFDRWLDESDAEMELRAKEEERLNKLRLEREGSPETLTNLKKGYLFMYNLVQLLGFSWIFVNLTVRFFILGKESFYDTFHNVADMMYFCQMLALVETLNAAIGVTSTPVLPALIQFLGRNFILFLVFGTMEEMQNKAVVFFVFYSWSAIEIFRYPFYMLSCIDMDWKVLTWLRYTMWIPLYPLGCLSEAVAVIQSIPVFNESGRFSFTLPYPVKMKVRFSFFLQVYLVMLFLGLYINFRHLYKQRRRRYGQKKKKLH
B4: IPO11 (protein, UniProt Q8K2V6 1-975)
chain: MDLNSASSVVLQVLTQATSQDTAVLKPAEEQLKQWETQPGFYSVLLNIFTNHTLDINVRWLAVLYFKHGIDRYWRRVAPHALSEEEKSTLRAGLITNFNEPINQIATQIAVLIAKVARLDCPRQWPELIPTLVESVKVQDDLRQHRALLTFYHVTKTLASKRLAADRKLFYDLASGIYNFACSLWNHHTDTFLQHVSSGNEAAVLSSLERTLLSLKVLRKLTVNGFVEPHKNMEVMGFLHGIFERLKQFLECSRSIGTDNVCRDRLEKTIILFTKVLLDFLDQHPISFTPLIQRSLEFSVSYVFTEVGEGVTFERFIVQCMNLIKMIVKNYAYKPSKNFEDSSPETLEAHKIKMAFFTYPTLTEICRRLVSHYFLLTEEELTMWEEDPEGFTVEETGGDSWKYSLRPCTEVLFIDIFHEYNQTLTPVLLEMMQTLEGPTNVEDMNALLIKDAVYNAVGLAAFELFDSVDFDQWFKTQLLPELQVSHNRYKPLRRRVIWLIGQWISVKFKSDLRPMLYEAICNLLQDQDLVVRIETATTLKLTVDDFEFRTDQFLPYLETMFTLLFQLLQQVTECDTKMHVLHVLSCVIERVNVQIRPYVGCLVQYLPLLWKQSEEHNMLRCAILTTLIHLVQGLGADSKNLYPFLLPVIQLSTDVSQPPHVYLLEDGLELWLVTLENSPCVTPELLRIFQNMSPLLELSSENLRTCFKIINGYIFLSSTEFLQTYAAGLCQSFYELLPEITTEGQVQVLKVVENALKVNPVLGPQMFQRILPCVFRGVIEGERYPVVMSIYLAVMGRVLLQNTSFFSSLLNEMGHEFNQEMDQLLGNVIEMWVDRMDNITQPERKKLSALALLSLLPSDNSVIQDKFCGIINISVEALHDVMTEDPETRTYKDCMLMSQHEEPKVTEDEEPPTEQDKRKKMLALKDPVHTVSLQQFIYEKLKAQQEILGEQGFQSLMETVDTEIVTQLQEFLQGF
B5: TNPO1 (protein, UniProt Q8BFY9 1-898)
chain: MVWDRQTKMEYEWKPDEQGLQQILQLLKESQSPDTTIQRTVQQKLEQLNQYPDFNNYLIFVLTKLKSEDEPTRSLSGLILKNNVKAHFQNFPNGVTDFIKSECLNNIGDSSPLIRATVGILITTIASKGELQNWPDLLPKLCSLLDSEDYNTCEGAFGALQKICEDSAEILDSDVLDRPLNIMIPKFLQFFKHSSPKIRSHAVACVNQFIISRTQALMLHIDSFIENLFALAGDEEAEVRKNVCRALVMLLEVRMDRLLPHMHNIVEYMLQRTQDQDENVALEACEFWLTLAEQPICKDVLVRHLPKLIPVLVNGMKYSDIDIILLKGDVEEDETIPDSEQDIRPRFHRSRTVAQQHEEDGIEEEDDDDDEIDDDDTISDWNLRKCSAAALDVLANVYRDELLPHILPLLKELLFHHEWVVKESGILVLGAIAEGCMQGMIPYLPELIPHLIQCLSDKKALVRSITCWTLSRYAHWVVSQPPDTYLKPLMTELLKRILDSNKRVQEAACSAFATLEEEACTELVPYLAYILDTLVFAFSKYQHKNLLILYDAIGTLADSVGHHLNKPEYIQMLMPPLIQKWNMLKDEDKDLFPLLECLSSVATALQSGFLPYCEPVYQRCVNLVQKTLAQAMLNNAQPEQYEAPDKDFMIVALDLLSGLAEGLGGNIEQLVARSNILTLMYQCMQDKMPEVRQSSFALLGDLTKACFQHVKPCIADFMPILGTNLNPEFISVCNNATWAIGEISIQMGIEMQPYIPMVLHQLVEIINRPNTPKTLLENTAITIGRLGYVCPQEVAPMLQQFIRPWCTSLRNIRDNEEKDSAFRGICTMISVNPSGVIQDFIFFCDAVASWINPKDDLRDMFCKILHGFKNQVGDENWRRFSDQFPLPLKERLAAFYGV

Each binder was assayed against FcεR1γ-FLAG (mouse) (UniProt P20491) (assay: affinity purification with mass spectrometry; anti-FLAG antibodies and Protein A/G magnetic beads on lysate of GFP+ RAW 264.7 cells lentivirally expressing FcεR1γ-FLAG (empty virus as control); lysis 50 mM Tris-HCl pH 7.4, 150 mM NaCl, 1% Triton X-100, 5 mM EDTA; wash with 500 mM NaCl, 0.1% Triton X-100; 4 °C; Orbitrap Exploris 480, MaxQuant LFQ).
B1 was tested, and the binding was “binds”.
With B2 the binding was “binds”.
With B3 the binding was “binds”.
For B4, the binding was “binds”.
With B5 the binding was “binds”.

No constants are given. Whether binding was seen depends on the method and setting. Binding seen in cells or lysates may run through a third protein. A yes stands for co-enrichment or nearness to the bait. Other partners may have been found.
